Measurements as given in US20040072737A1 (Aventis Pharma S.A., priority 1997, published 2004).

Test: general procedure: peptide synthesis; pentafluorophenyl ester (pentafluorophenol / N,N' dicyclohexyl carbodiimide)
Conditions: late stage modification step, trifluoroacetate

(pentyloxy)phenyl-piperazinyl-phenyl Stage B
step yield: 42%
